This is an account of results in the supplement of paper PMC12889115.

In the assay the test system is Salmonella enterica serovar Typhimurium SL1344. As to the kind of experiment: bacterial growth OD600 after 18 h with compound and polymyxin B; higher = more bacterial growth (less inhibition). The settings on record: 50 µM, Mueller-Hinton broth.

Some of the results follow. These are raw signals, not scaled to a control.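 In the initial screen, polymyxin B was used at a concentration that permeabilizes Salmonella's outer membrane but not its inner membrane. Maximum growth was set by DMSO wells with or without polymyxin B. Since plates varied, data were ranked per plate, and compounds giving the lowest OD600 advanced as hits.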

Take `Cc1oc(-c2ccc(NC(=O)Cc3ccccc3)cc2)nc1CNC(=O)Cn1ncc2ccccc21`: the “bacterial growth OD600” value (polymyxin B 0.75 µg/mL) worked out at 0.835.
Still for that read-out and setting: the same measure for `CC(=O)N1CCCN(C2CCN(c3ccc(NC(=O)CCc4ccccc4)cc3)CC2)CC1`: 0.811.
Regarding `COc1ccc(CCN2CC(NC(C)=O)CC2=O)cc1` (stereo not given), the “bacterial growth OD600” value (polymyxin B 1 µg/mL) stood at 0.922.
For `CCCn1cc(CN2C[C@H]3OC(=O)N(CCc4ccccn4)[C@H]3C2)c(C)n1`, the “bacterial growth OD600” value (polymyxin B 0.75 µg/mL) came to 0.957.
Consider `COc1cccc(CNC2CCN(c3ccc(C(=O)NC(C)c4ccccc4)cc3)CC2)c1OC` (stereo not given), for which the “bacterial growth OD600” value (polymyxin B 0.75 µg/mL) was 0.781.
For the molecule `COc1ccc2c(c1)-c1nc(-n3ncc(C(=O)N4CCN(C5CCCC5)CC4)c3C)ncc1CC2`, the “bacterial growth OD600” value (polymyxin B 0.75 µg/mL) was found to be 0.795.
On to `O=C1CCC(CCC(=O)N2CCCC(C(=O)c3ccccc3)C2)(Cc2ccccc2)N1` (stereo not given), for which the “bacterial growth OD600” value (polymyxin B 0.75 µg/mL) worked out at 0.998.
As to `COC1CCN(c2ccc(-c3nc(COc4ccccc4)no3)cn2)CC1`, where the note is “polymyxin B 1 µg/mL”, the “bacterial growth OD600” value was determined as 0.898.
Take `C[C@@H]1CN(C(=O)c2csc3nc(-c4cccc(C(F)(F)F)c4)cn23)C[C@H](C)O1`: for the setting “polymyxin B 1 µg/mL”, the “bacterial growth OD600” value amounted to 1.25.
Regarding `CN1CCN([C@@H]2CCN(C3CCN(c4ccc5c(c4)CCC5)CC3)C[C@H]2O)CC1`, the “bacterial growth OD600” value (polymyxin B 0.75 µg/mL) was 0.867.
As to `Cc1cccc(CN2CCC(N3CCC(C(=O)N4CCCCC4)CC3)CC2)n1`, under “polymyxin B 1 µg/mL”, the “bacterial growth OD600” value is 1.03.
Still for that read-out and setting: the same measure for `COC1CCN(C(=O)CC(c2ccccc2)c2ccc(Cl)cc2)CC1` (stereo not given): 0.52; for `CCC(COC)NC(=O)CCc1nnc(CCc2ccccc2OC)o1` (stereo not given): 1.05; for `CN(C(=O)CCc1ccncc1)C1CCCN(CCc2ccccc2)C1` (stereo not given): 1.19.
As to `COc1ccccc1CCNC1CCN(c2ccc(NC(=O)CCc3ccccc3)cc2)CC1`, the “bacterial growth OD600” value (polymyxin B 0.75 µg/mL) worked out at 0.833.
`O=C(CCC(F)(F)F)NC1CCCc2c1cnn2-c1cc(F)cc(F)c1` (stereo not given): for the setting “polymyxin B 0.75 µg/mL”, the “bacterial growth OD600” value came to 0.708.
Same read-out and setting: the same measure for `CC(CNC(=O)CCC1(Cc2ccc(Cl)cc2)CCC(=O)N1)c1ccccc1` (stereo not given): 0.866.
Turning to `Cc1ccccc1Cn1cc(C(=O)N(C)CCCC2CCCC2)nn1`, the “bacterial growth OD600” value (polymyxin B 1 µg/mL) amounted to 0.794.
In the case of `Cc1ccsc1CN(C)C(=O)C1CCCN(C2CCN(C(=O)C3CC3)CC2)C1` (stereo not given), the “bacterial growth OD600” value (polymyxin B 1 µg/mL) stood at 0.958.
As to `Cc1ccccc1CCN1CCCC(CN(C)C(=O)c2ccccc2F)C1` (stereo not given), the “bacterial growth OD600” value (polymyxin B 1 µg/mL) stood at 0.806.
Regarding `O=C(c1cn[nH]c1)N1CCc2onc(C(c3ccccc3)c3ccccc3)c2C1`, the “bacterial growth OD600” value (polymyxin B 0.75 µg/mL) was 0.588.
As to `CCOC(=O)C1(CCOc2ccccc2)CCCN(Cc2nccn2CC)C1` (stereo not given), the “bacterial growth OD600” value (polymyxin B 0.75 µg/mL) worked out at 0.007.
In the case of `COCCNC(=O)c1ccc(OC)cc1OC1CCN(Cc2ccccc2F)CC1`, the “bacterial growth OD600” value (polymyxin B 1 µg/mL) came out at 0.98.
`COC(=O)[C@H](Cc1ccccc1)NC1CCN(c2cccc(NC(=O)CC3CCCC3)c2)CC1`: where the note is “polymyxin B 0.75 µg/mL”, the “bacterial growth OD600” value came to 0.021.
As to `COc1ccc(-c2nn(-c3ccccc3C)cc2CN2CCCC(C(N)=O)C2)cc1F` (stereo not given), the “bacterial growth OD600” value (polymyxin B 1 µg/mL) was 1.13.
Regarding `CN(c1ccc(-c2nc(Cc3ccc(F)cc3)no2)cn1)C1CCOCC1`, the “bacterial growth OD600” value (polymyxin B 0.75 µg/mL) amounted to 0.011.
On the same count and under the same terms, under `CN(C(=O)C1CCCN(C2CCN(C(=O)C3CC3)CC2)C1)C1CCCCC1` (stereo not given) stands 0.912; under `COc1ccc2cc(C(C)NC(=O)Cn3nnnc3CN3CCCC3)ccc2c1` (stereo not given), 0.028.
Same read-out and setting: under `COc1ccc(C2(CC(=O)N3CCN(Cc4ccc(C)cc4)C(=O)C3)CC(=O)N(C3CC3)C2=O)cc1` (stereo not given) stands 0.75; under `COCCCN1C(=O)CC(CC(=O)NCC2(c3ccccc3)CC2(C)C)(c2ccccc2)C1=O` (stereo not given), 0.754.
